# No constants are given. Whether binding was seen depends on the method and setting. Binding seen in cells or lysates may run through a third protein. Some entries that bind do so weakly or less than the wild type.
# Chains of the proteins cited; added tags and fusions are not shown. Residues count along the entry.
# UniProt P62812, residues 28-455: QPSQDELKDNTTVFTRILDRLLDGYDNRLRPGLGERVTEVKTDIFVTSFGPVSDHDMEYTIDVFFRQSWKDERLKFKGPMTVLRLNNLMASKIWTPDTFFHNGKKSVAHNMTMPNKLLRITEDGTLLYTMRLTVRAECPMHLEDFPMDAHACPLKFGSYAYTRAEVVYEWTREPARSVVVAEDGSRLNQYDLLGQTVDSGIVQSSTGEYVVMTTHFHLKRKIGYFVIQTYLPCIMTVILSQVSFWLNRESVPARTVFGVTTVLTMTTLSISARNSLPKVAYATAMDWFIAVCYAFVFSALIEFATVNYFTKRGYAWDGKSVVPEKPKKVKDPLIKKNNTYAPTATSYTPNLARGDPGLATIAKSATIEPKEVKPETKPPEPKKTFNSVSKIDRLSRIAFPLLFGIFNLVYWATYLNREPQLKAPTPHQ
# UniProt Q69ZK9, residues 15-836: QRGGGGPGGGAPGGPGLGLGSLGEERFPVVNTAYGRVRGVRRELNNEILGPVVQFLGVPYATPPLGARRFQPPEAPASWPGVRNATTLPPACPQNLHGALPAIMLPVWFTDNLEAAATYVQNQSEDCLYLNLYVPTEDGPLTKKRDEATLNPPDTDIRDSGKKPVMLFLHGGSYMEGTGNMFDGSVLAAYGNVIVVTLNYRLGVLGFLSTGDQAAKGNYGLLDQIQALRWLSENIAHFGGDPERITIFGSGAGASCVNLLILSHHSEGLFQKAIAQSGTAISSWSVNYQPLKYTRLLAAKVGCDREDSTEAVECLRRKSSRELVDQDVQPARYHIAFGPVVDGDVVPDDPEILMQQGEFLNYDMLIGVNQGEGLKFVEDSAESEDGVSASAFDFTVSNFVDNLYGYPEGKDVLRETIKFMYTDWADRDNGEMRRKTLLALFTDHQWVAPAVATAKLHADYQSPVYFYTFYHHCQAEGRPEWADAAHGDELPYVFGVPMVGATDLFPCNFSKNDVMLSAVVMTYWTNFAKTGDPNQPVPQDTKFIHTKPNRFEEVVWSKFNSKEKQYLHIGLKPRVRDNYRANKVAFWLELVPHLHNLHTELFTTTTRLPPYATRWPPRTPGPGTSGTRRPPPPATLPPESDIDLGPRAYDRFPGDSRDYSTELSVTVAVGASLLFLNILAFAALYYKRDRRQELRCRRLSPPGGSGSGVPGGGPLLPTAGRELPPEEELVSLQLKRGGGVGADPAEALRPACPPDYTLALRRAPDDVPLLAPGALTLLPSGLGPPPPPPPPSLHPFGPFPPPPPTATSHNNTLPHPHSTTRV
# Target: GABAAR α1 subunit (mouse (endogenous in mouse brain)) (UniProt P62812)
# Test: co-IP; immunoisolation from the membrane fraction (P100) of mouse hippocampi, buffer without detergent (Tris-HCl 20 mM, HEPES 10 mM, NaCl 150 mM, sucrose 250 mM, EDTA 0.5 mM), Dynabeads Protein A coupled with rabbit anti-EndoA1 or rabbit anti-GABAAR α1; immunoblotting; also from Sh3gl2+/+ and Sh3gl2-/- brains
substance,measurement,value
neuroligin-2 (from UniProt Q69ZK9 15-836),binding,binds

# — publication PMC12490859
